Assay results from article PMC7505474, “Toll-like receptor 4-mediated inflammation triggered by extracellular IFI16 is enhanced by lipopolysaccharide binding” (PLoS Pathogens, 2020).
Results are given in words; binding and its absence hold for the method and conditions named. In cells and extracts the contact can be indirect. Some results given as binding are weak or reduced against the parent protein; the word gives no strength.

Amino acid sequences for entries named in this document (tags omitted). A change or cut given only in a name is not applied to a line headed by its entry. Chains listed by the source or under a name are the forms on record and can include a tag or linker.
UniProt O00206: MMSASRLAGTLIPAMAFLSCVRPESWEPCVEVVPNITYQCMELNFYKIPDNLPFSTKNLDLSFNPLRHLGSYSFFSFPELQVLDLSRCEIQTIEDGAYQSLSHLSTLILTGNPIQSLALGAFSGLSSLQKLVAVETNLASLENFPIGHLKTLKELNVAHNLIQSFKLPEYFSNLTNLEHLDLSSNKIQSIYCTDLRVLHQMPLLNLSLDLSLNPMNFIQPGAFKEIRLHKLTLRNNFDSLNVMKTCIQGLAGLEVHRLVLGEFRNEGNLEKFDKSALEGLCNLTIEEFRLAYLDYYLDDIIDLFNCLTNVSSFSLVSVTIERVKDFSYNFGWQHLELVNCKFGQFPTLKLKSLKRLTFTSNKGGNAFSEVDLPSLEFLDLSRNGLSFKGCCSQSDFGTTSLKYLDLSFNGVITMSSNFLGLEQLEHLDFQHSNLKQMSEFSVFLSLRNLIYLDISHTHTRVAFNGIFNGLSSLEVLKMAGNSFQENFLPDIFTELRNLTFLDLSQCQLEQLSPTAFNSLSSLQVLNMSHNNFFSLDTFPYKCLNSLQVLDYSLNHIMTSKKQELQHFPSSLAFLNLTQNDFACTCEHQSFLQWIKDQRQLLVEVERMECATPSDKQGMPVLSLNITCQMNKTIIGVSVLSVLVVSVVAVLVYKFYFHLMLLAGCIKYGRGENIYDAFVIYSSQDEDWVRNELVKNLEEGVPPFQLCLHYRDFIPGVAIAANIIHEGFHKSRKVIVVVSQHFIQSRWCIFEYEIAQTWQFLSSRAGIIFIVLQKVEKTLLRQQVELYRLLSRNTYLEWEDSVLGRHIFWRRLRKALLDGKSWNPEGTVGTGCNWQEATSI
UniProt Q9Y6Y9: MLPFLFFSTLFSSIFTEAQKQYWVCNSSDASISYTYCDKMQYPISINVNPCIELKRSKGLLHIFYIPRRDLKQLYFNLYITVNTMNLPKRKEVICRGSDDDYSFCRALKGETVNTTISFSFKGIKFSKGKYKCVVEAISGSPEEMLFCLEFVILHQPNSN
human recombinant IFI16 protein (Q16666-2, form named): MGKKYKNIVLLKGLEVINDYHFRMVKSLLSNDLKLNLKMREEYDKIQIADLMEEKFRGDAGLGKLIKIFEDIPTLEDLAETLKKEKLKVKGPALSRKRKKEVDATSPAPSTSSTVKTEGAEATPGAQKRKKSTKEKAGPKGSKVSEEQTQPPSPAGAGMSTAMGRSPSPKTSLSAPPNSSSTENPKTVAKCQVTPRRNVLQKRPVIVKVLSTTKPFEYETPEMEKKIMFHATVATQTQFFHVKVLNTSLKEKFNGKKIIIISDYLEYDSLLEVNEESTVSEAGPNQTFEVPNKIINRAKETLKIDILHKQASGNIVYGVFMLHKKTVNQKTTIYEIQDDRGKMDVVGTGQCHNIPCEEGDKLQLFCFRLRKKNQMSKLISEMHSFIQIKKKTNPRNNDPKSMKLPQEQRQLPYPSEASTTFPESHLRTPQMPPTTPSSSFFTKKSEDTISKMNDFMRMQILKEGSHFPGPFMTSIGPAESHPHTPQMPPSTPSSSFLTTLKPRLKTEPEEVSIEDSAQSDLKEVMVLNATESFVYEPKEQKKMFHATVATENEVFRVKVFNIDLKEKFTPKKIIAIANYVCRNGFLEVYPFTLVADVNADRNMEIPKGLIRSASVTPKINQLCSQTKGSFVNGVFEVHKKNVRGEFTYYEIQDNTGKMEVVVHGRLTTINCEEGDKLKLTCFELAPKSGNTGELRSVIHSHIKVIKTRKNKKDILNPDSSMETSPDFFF

Target: TLR4/MD2 receptor, endogenous in 786-O cells (human (endogenous in 786-O)) (UniProt O00206+Q9Y6Y9)
Experiment: co-IP; 786-O cells stimulated for 1 h with recombinant IFI16 or IFI16/LPS-EB complex; 90 μg of RIPA total cell extract, untreated or DNase I-treated, incubated 1 h at RT with 2.5 μg anti-TLR4 antibody on protein G Dynabeads; blots for IFI16, TLR4 and MD2; only the binder purified

## human recombinant IFI16 protein (from UniProt Q16666-2 1-729)
  binding: binds
